Results are given in words; binding and its absence hold for the method and conditions named. In cells and extracts the contact can be indirect. Some entries that bind do so weakly or less than the wild type.

By UniProt entry, the sequences of proteins in these tests, tags left out.
UniProt Q9QZL0: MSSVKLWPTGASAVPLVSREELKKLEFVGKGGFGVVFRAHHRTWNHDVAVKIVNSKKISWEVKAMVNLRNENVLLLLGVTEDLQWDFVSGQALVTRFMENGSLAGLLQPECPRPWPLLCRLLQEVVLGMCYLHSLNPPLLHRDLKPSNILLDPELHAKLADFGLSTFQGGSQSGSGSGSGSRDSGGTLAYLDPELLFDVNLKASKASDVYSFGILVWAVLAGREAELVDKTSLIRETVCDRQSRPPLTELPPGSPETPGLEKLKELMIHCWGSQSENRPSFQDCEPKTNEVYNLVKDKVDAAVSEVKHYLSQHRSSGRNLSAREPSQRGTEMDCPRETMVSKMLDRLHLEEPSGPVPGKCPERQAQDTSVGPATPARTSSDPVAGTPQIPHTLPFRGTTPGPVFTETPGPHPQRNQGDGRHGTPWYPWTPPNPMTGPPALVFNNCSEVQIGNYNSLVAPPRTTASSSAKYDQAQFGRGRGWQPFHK

For this assay, the target named is receptor-interacting serine-threonine kinase 3 (RIPK3) (mouse (endogenous in colon tissue)) (UniProt Q9QZL0). As to the kind of experiment: co-IP; anti-RIPK3 antibody on protein A/G magnetic beads, incubated overnight at 4 °C with colon tissue supernatant in RIPA buffer; blot for MLKL; isotype IgG control; colon of control, TNBS model and TNBS + WMW treated mice.

B1: mixed lineage kinase domain-like (MLKL) (protein, UniProt Q9D2Y4 1-472)
chain: MDKLGQIIKLGQLIYEQCEKMKYCRKQCQRLGNRVHGLLQPLQRLQAQGKKNLPDDITAALGRFDEVLKEANQQIEKFSKKSHIWKFVSVGNDKILFHEVNEKLRDVWEELLLLLQVYHWNTVSDVSQPASWQQEDRQDAEEDGNENMKVILMQLQISVEEINKTLKQCSLKPTQEIPQDLQIKEIPKEHLGPPWTKLKTSKMSTIYRGEYHRSPVTIKVFNNPQAESVGIVRFTFNDEIKTMKKFDSPNILRIFGICIDQTVKPPEFSIVMEYCELGTLRELLDREKDLTMSVRSLLVLRAARGLYRLHHSETLHRNISSSSFLVAGGYQVKLAGFELSKTQNSISRTAKSTKAERSSSTIYVSPERLKNPFCLYDIKAEIYSFGIVLWEIATGKIPFEGCDSKKIRELVAEDKKQEPVGQDCPELLREIINECRAHEPSQRPSVDGRSLSGRERILERLSAVEESTDKKV
With B1, the binding result was “binds”.

(Values after paper PMC8365910.)
